Test [1] has as its target T1, polypeptide ….
T1 sequence (peptide): LSPGANSHVSRH
Description: far-Western, overlay or dot blot; serially diluted peptide blotted onto PVDF, soaked in ORF55 protein solution, detected with anti-MBP-tag antibody and HRP secondary antibody; both purified.

Test [2] concerns the target MBP-tagged recombinant ORF55 protein of cyprinid herpesvirus 2 (CyHV-2) strain YC-01 (Cyprinid herpesvirus 2 (CyHV-2), strain YC-01). Description: phage display panning; MBP-ORF55 coated in a 12-well plate (100, 90, 85 ug/mL in rounds 1-3); Ph.D.-12 library; Tween-20 0.1-0.5%; 50 plaques sequenced after the third round; only the target purified.

Results are given in words; binding and its absence hold for the method and conditions named. Binding calls can cover weak binding; strength is not graded here.

“MBP-tagged recombinant ORF55 protein of cyprinid herpesvirus 2 (CyHV-2) strain YC-01”: the binding result in test [1] is reported as “binds”.

B1: phage-displayed polypeptide … (Ph.D.-12 library clone) (peptide)
chain: LSPGANSHVSRH
Regarding B1, the binding entry in test [2] is on record as “binds”.

These data come from PMC10091560.
